Data taken from patent US20080125399A1, “17 Beta-Acetamide-4-Azasteroids As Androgen Receptor Modulators” (priority 2004, published 2008).
Some entries share one result that the patent states for a list of compounds.

Chains of the proteins cited; added tags and fusions are not shown. Lines headed by an entry give the natural chain unless they say otherwise; changes in a name come on top.
UniProt P10275: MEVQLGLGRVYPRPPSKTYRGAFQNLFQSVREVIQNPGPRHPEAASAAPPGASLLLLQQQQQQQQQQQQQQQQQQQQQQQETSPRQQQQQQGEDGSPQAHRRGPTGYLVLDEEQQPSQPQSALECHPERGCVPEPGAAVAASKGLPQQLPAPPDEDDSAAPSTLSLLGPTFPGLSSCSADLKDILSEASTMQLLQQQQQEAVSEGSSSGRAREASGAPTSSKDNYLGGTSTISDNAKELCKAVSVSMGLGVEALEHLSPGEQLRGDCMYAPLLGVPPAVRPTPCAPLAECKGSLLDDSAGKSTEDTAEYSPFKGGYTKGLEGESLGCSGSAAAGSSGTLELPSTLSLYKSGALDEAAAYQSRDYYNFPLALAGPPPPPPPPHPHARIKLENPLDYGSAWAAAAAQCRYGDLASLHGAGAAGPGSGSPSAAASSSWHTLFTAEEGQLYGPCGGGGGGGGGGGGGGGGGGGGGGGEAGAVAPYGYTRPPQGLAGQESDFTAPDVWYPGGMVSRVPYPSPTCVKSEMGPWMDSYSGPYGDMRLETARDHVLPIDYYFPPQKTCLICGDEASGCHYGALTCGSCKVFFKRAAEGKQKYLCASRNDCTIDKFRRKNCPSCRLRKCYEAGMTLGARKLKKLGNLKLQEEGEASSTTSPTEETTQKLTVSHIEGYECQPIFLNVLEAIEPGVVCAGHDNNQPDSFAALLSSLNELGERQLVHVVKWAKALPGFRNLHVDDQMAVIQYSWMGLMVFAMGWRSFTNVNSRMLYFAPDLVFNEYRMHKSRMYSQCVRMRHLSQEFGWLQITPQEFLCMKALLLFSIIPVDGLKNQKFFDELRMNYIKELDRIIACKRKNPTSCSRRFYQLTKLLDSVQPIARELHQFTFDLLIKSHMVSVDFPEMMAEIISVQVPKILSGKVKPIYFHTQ

Target: endogenously expressed AR (MDA-MB-453 cell lysate) (Homo sapiens, UniProt P10275)
Assay: Hydroxylapatite-based radioligand displacement assay of compound affinity for endogenously expressed AR
Type: binding
Details: 3H-R1881 or 3H-DHT 0.5 nM, R1881 as reference

Cc1cc(NC(=O)CC2CCC3C4CC(Cl)=C5N(C)C(=O)CCC5(C)C4CCC23C)ccn1 (stereo not drawn) [Example 36, N-(2-methyl-pyrid-4-yl)-4-methyl-6-chloro-3-oxo-4-aza-5α-androst-5-en-17β-acetamide]
IC50: ≤ 1 µM
